In patent US20230382889A1 (Volastra Therapeutics, Inc., priority 2022, published 2023):
Structures were worked out from names or drawings and are uncertain.

The chains behind the UniProt entries cited, without tags or fusion partners. Residues count along the entry.
UniProt Q8NI77, 1-374 limits assumed: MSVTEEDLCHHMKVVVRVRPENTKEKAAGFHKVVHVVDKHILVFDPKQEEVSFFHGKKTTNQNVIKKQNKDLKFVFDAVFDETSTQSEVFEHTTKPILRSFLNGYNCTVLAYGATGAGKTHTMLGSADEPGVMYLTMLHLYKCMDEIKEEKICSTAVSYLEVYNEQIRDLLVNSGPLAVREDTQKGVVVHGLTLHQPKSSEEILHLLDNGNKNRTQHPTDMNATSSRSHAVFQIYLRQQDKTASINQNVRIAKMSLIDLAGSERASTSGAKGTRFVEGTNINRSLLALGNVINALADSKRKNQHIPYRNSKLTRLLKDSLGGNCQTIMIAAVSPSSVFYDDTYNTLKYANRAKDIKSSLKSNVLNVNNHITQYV

Biological target: hKIF18A (1-374) (Homo sapiens (Human), UniProt Q8NI77)
Assay: Inhibition of KIF18A microtubule-dependent ATPase activity (ADP-Glo)
Assay type: biochemical
Settings: 4 nM hKIF18A (1-374)

IC50: 12 nM
Compound: O=S(=O)(CCO)Nc1ccc(-n2cc(-c3csc(N4CCC(F)(F)CC4)n3)nn2)c(N2CCC3(CC2)CC3)c1 [Compound 69, N-(4-(4-(2-(4,4-difluoropiperidin-1-yl)thiazol-4-yl)-1H-1,2,3-triazol-1-yl)-3-(6-azaspiro[2.5]octan-6-yl)phenyl)-2-hydroxyethane-1-sulfonamide]
